In the supplement of paper PMC5949888:
Most values lie at the floor of the assay. Slopes are relative: functional sequences can read slightly below zero.

System: Saccharomyces cerevisiae PS128 hsf1 delta, HSF1(1-493) fusion
Test: growth estimate (transactivation domain function in HSF1 fusion, heat-shock survival) (a.u. (slope of normalised read count over time)); higher = stronger growth at 37°C, i.e. more transactivation activity
Conditions: library: random library
Experimental: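 Random 60-nt DNA library encoding peptides of up to 20 aa, fused to the C-terminus of yeast HSF1 residues 1-493 (C-terminal TAD deleted) and expressed from the native HSF1 promoter on a CEN plasmid in hsf1-deleted S. cerevisiae PS128. Cells were selected at 37°C on -trp 5-FOA plates for 0, 2, 4, 6 and 8 days and amplicons were sequenced. Growth estimate is the slope of a robust linear fit of total-sum-normalised read counts (normalised to the first time point) over time, using at least 2 replicates. Sequences are classed functional (TAD activity) above a threshold of -0.13, set from stop-codon control sequences.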

Row | Substance | growth estimate
1 | GATFAHEVAGQWTAIALLAG | < -0.25
2 | GATTIVS | < -0.25
3 | GAVDWGTLTKNWLDGCHSG | 0.0021
4 | GAVIHPRTDTRTGSAPPLPD | < -0.25
5 | GAVLSRITGLRGVVRISGRP | < -0.25
6 | GAVYCK | < -0.25
7 | GAYIQGGSIHCLCSCIDGSG | < -0.25
8 | GCAPETWSGFKRGGRYRWLC | < -0.25
9 | GCARAAITL | < -0.25
10 | GCATVGLPYQAGKRGVRTVT | -0.243
11 | GCC | < -0.25
12 | GCCDRYAFTHASGSTRKVAR | < -0.25
13 | GCDTYLWGSQR | < -0.25
14 | GCGGPMICGETSWRRSQIMR | < -0.25
15 | GCGLGIRR | < -0.25
16 | GCGWFHSWNPVPPDSTDRRG | < -0.25
17 | GCHDRP | < -0.25
18 | GCIQTWEQQATSLKVGPSGR | < -0.25
19 | GCIRSEGDPLGSANCGRVLA | < -0.25
20 | GCITSYSRKVRGREHVGFRA | < -0.25
21 | GCK | < -0.25
22 | GCKCNGYSLIDVFIEIRPIW | < -0.25
23 | GCLIILSLHDKVSGLRGFLT | < -0.25
24 | GCLMHYRVKSVPGITLRFSS | < -0.25

Row | Substance | growth estimate
25 | GCLRRGKGRVLITSRASS | < -0.25
26 | GCLSC | < -0.25
27 | GCMSGVTMFLSRFGSCQQLS | < -0.25
28 | GCPFRRKA | < -0.25
29 | GCQRIAQAQMYRNIAGHTSL | < -0.25
30 | GCR | < -0.25
31 | GCRLYICFTGQNCLETNVLL | < -0.25
32 | GCRP | < -0.25
33 | GCRRLKCNQAKKR | < -0.25
34 | GCRSAWPGIQLTCSSSRKIE | < -0.25
35 | GCRYNGTREH | < -0.25
36 | GCSADGAI | < -0.25
37 | GCTFKGCGSSRR | 0.183
38 | GCTLIGGSRLRANSSVRWIG | < -0.25
39 | GCTRLLGDF | < -0.25
40 | GCTVFRLSSFPVSGRRACRS | < -0.25
41 | GCVPARSRKMLQVSWIEDGI | < -0.25
42 | GCWNLNSMDFGLVSYQ | < -0.25
43 | GDAPACGLRTM | < -0.25
44 | GDASNPI | < -0.25
45 | GDCQLFENDNGRGDKRTGGP | < -0.25
46 | GDDFGYTHEARLTPSTPPIL | < -0.25
47 | GDDVLFQWRLWPLRRCLCEQ | < -0.25
48 | GDERSSSRNP | < -0.25

Row | Substance | growth estimate
49 | GDEYQKFKFGY | < -0.25
50 | GDGAGPVLSESWSNNEKSLV | < -0.25
51 | GDGV | < -0.25
52 | GDHRCSIHQTWSGSRHTHG | < -0.25
53 | GDITGFRTAFKEREDARP | -0.158
54 | GDKFYQSSGVFNRG | < -0.25
55 | GDKSGTGVYHDTESVPALWE | < -0.25
56 | GDLDQTWTINDWPGGVDLPG | < -0.25
57 | GDLGLGWANFGTQVIESIWR | -0.245
58 | GDMWAWVSTARNQRRFPNDV | < -0.25
59 | GDPCASKLDTELPRCCSEDL | < -0.25
60 | GDPKSTKSGGHGEMVSSSAH | < -0.25
61 | GDPPGGGPCRDRDQT | < -0.25
62 | GDRDQGGFCRCTRCVECSSL | < -0.25
63 | GDRRVREYRGLWGSSGCRRT | < -0.25
64 | GDRVNKGPRYNWWNL | -0.218
65 | GDTQVWYRSSIYFLA | < -0.25
66 | GDTRAAIHGGRVGECSLV | < -0.25
67 | GDWVKEVSQCECLSICYAHT | < -0.25
68 | GDYFGA | < -0.25
69 | GEAADGGHVV | < -0.25
70 | GEAWELIPLAYDGPPGES | < -0.25
71 | GED | < -0.25
72 | GEEEDNSEGEAVAAPTDTVE | < -0.25

Some of the entries above, set out differently.
GCTVFRLSSFPVSGRRACRS
  growth estimate = < -0.25
GCVPARSRKMLQVSWIEDGI
  growth estimate = < -0.25

Further results.

Row | Substance | growth estimate
73 | GEEFES | < -0.25
74 | GEFFTCRVRQVERPCGVLEG | < -0.25
75 | GEFVGQPRGPALALTQSKRS | < -0.25
76 | GEGNAPCGWESYRRGRSTMA | < -0.25
77 | GEHGRCECLGSLTHHDPERY | < -0.25
78 | GEHISQ | < -0.25
79 | GEHKCPVESAEFWIAQARPR | < -0.25
80 | GEHQLHVVAPVRGPFLCLTG | < -0.25
81 | GEHRVAVHVHGSMRNTTSLW | < -0.25
82 | GEKFETE | < -0.25
83 | GELCRSETLCCEVPTFTTAG | < -0.25
84 | GELIHKHPRATRGATKMSGW | < -0.25
85 | GELLNPWC | < -0.25
86 | GENR | < -0.25
87 | GEPGH | < -0.25
88 | GEQDRCG | < -0.25
89 | GERAAAPGR | < -0.25
90 | GERKYGRATVLPETLLLTSI | < -0.25
91 | GERLGLAAARRADIMAKNPA | < -0.25
92 | GESGGGCQGGIYVNI | < -0.25
93 | GESGPADYCEVTVRWCVRIA | < -0.25
94 | GESIGMMDPWSY | -0.224
95 | GESLGR | -0.172
96 | GESRDTCQWCQIRFSYRVAA | < -0.25

Two entries from above, as a markdown table.

| Row | Substance | growth estimate |
| --- | --- | --- |
| 66 | GDTRAAIHGGRVGECSLV | < -0.25 |
| 67 | GDWVKEVSQCECLSICYAHT | < -0.25 |

More entries

Row | Substance | growth estimate
97 | GEVIRGDHSRIFTVVAALNR | < -0.25
98 | GEVRS | < -0.25
99 | GEVSSAPTGGSSEDHDMYES | < -0.25
100 | GEVYTSSSPSVTRFKSPQNC | < -0.25
101 | GEYVKTCEFSLVAIMFAISL | < -0.25
102 | GFDCYFSRLSLNHHHGELVC | < -0.25
103 | GFEAGINCD | < -0.25
104 | GFEDSRRI | < -0.25
105 | GFFRLRACVRLWHRTDPLDW | -0.238
106 | GFG | < -0.25
107 | GFGITIFRVLNGLLSCGIVP | < -0.25
108 | GFGL | < -0.25
109 | GFGRAGVAAEKGFGGTRGH | < -0.25
110 | GFGRSHERVRCRKFSSWPNG | < -0.25
111 | GFGYRLDSAIRWSPTSTHNR | < -0.25
112 | GFHRRGTGRATARIRLSNQP | < -0.25
113 | GFHVCATWYGRRTCAWDGLQ | < -0.25
114 | GFKFEISANQLGVGHYVVCT | < -0.25
115 | GFKYTLTMYAWKAYHIFIVR | < -0.25
116 | GFLRQDSGISIIVM | < -0.25
117 | GFMCTSYELQTRITLIGR | < -0.25
118 | GFNRQVPCCATV | < -0.25
119 | GFNTRSGPREGGGEDRPKND | < -0.25
120 | GFPATGKVVVTSRIPHLASQ | < -0.25

Row | Substance | growth estimate
121 | GFRGGHSAAGCVVS | < -0.25
122 | GFRGQRC | < -0.25
123 | GFRTQPIG | < -0.25
124 | GFSTGVPRAFTTRRSRSRGT | < -0.25
125 | GFVSARVLLVHRTGCRT | < -0.25
126 | GGA | < -0.25
127 | GGACWRVVTLD | -0.222
128 | GGAKQKGTVC | < -0.25
129 | GGALA | < -0.25
130 | GGAWIPGDFRKVWCRPNSRF | -0.248
131 | GGCPGKASELQSEAAI | < -0.25
132 | GGCTRVKYGR | < -0.25
133 | GGCWLSALEPIIKQESAGP | < -0.25
134 | GGDEAPKF | < -0.25
135 | GGDKQVS | < -0.25
136 | GGDRIYGNRGSPPIHNRLMH | < -0.25
137 | GGDSS | < -0.25
138 | GGDSTFLALIRVESKNLWKR | < -0.25
139 | GGDTVMGTSPY | < -0.25
140 | GGEIFRLRPAASSREYSAVR | < -0.25
141 | GGELCENNARSS | < -0.25
142 | GGEPWICGGPQVLLGSTYAS | < -0.25
143 | GGFGGGSISNSYDRGIHASG | < -0.25
